Literature values in patent publication US20110257236A1, “SOLID SOLUTION OF VALINE, ISOLEUCINE, LEUCINE AND ITS MANUFACTURING METHOD” (AJINOMOTO CO., INC., priority 2008, published 2011).

Conditions: taste (bitter taste); cited from earlier work

Row | Compound | stimulus threshold [mg/dL]
1 | CC[C@H](C)[C@H](N)C(=O)O [Ile, L-isoleucine] | 90
2 | CC(C)[C@H](N)C(=O)O [Val, L-valine] | 150
